Data reported in the supplement of paper PMC3682954.
Structures can show the parent of a compound that is named as a salt. ± gives the standard deviation of the averaged measurements. This is one part of the list. Most values come without repeats; read them as rough.

Tested on: RAW 264.7
Experiment: cell viability (MTT) relative to vehicle control; higher = more viable cells
Details: stimulus: HMGB1 5 ug/ml, 18 h
[1] = compound concentration: 1 ug/ml

NC(N)=O
cell viability (compound concentration: 3 uM): 101%

COC(=O)c1ccc(O)c2nc3c(C=O)c(O)cc(O)c3nc12 [Lomofungin]
cell viability (compound concentration: 3 uM): 111%

Cn1c([N+](=O)[O-])cnc1COC(N)=O [Ronidazole]
cell viability (compound concentration: 3 uM): 101%

Cn1c([N+](=O)[O-])cnc1COC(N)=O
cell viability (compound concentration: 3 uM): 103%

O=C1c2ccccc2S(=O)(=O)N1CCCCN1CCN(c2ncccn2)CC1 [Ipsapirone]
cell viability (compound concentration: 3 uM): 112%

N[C@@H](C(=O)N[C@@H]1C(=O)N2C(C(=O)O)=C(Cl)CS[C@H]12)c1ccccc1
cell viability (compound concentration: 3 uM): 102 ± 1.6%

N[C@@H](C(=O)N[C@@H]1C(=O)N2C(C(=O)O)=C(Cl)CS[C@H]12)c1ccccc1 [Cefaclor]
cell viability [1]: 92.9%
cell viability (compound concentration: 3 uM): 102 ± 7%

COc1ccc(C(=O)NCc2ccc(OCCN(C)C)cc2)cc1OC [Itopride]
cell viability (compound concentration: 3 uM): 124 ± 26%

COc1ccc(C(=O)NCc2ccc(OCCN(C)C)cc2)cc1OC
cell viability (compound concentration: 3 uM): 101%

COc1cccc2oc(-c3ccc(O)cc3)cc(=O)c12
cell viability [1]: 82.6%

C[C@@H]1C[C@@]2(O[C@H]2C)C(=O)O[C@@H]2CCN(C)C/C=C(/COC(=O)[C@]1(C)O)C2=O [Otosenine]
cell viability [1]: 96.3%

NCCS(=O)O [Hypotaurine]
cell viability (compound concentration: 3 uM): 106%

OC[C@H]1O[C@@H](O[C@@H]2[C@@H](CO)OC(O)(CO)[C@H]2O)[C@H](O)[C@@H](O)[C@H]1O (mixture of isomers) [Lactulose]
cell viability [1]: 106%

OC[C@H]1O[C@@H](O[C@@H]2[C@@H](CO)OC(O)(CO)[C@H]2O)[C@H](O)[C@@H](O)[C@H]1O (mixture of isomers)
cell viability (compound concentration: 3 uM): 105%

CC(Oc1ccccc1)C(=O)N[C@@H]1C(=O)N2[C@@H]1SC(C)(C)[C@@H]2C(=O)O (stereo partly drawn)
cell viability (compound concentration: 3 uM): 106%

CC(Oc1ccccc1)C(=O)N[C@@H]1C(=O)N2[C@@H]1SC(C)(C)[C@@H]2C(=O)O (stereo partly drawn) [Phenethicillin potassium salt]
cell viability (compound concentration: 3 uM): 126%

CC(C)NC[C@H](O)c1ccc(O)c(O)c1 [R(-)-Isoproterenol (+)-bitartrate]
cell viability (compound concentration: 3 uM): 101%

COc1ccc(-c2cc(C(F)F)nn2-c2ccc(S(N)(=O)=O)cc2)cc1F
cell viability (compound concentration: 3 uM): 102%

CC(=O)Nc1ccc(CC(=O)O)cc1
cell viability (compound concentration: 3 uM): 92.2%

O=c1oc2ccccc2c(-c2ccccc2)c1-c1ccc(Cl)cc1Cl [3(2',4'-Dichlorophenyl)-4-phenylcoumarin]
cell viability [1]: 99.8%

CNCCC(Oc1ccc(C(F)(F)F)cc1)c1ccccc1 (stereo not drawn) [Fluoxetine]
cell viability (compound concentration: 3 uM): 96.8%

CNCCC(Oc1ccc(C(F)(F)F)cc1)c1ccccc1 (stereo not drawn)
cell viability (compound concentration: 3 uM): 104%

CNCCC(Oc1ccc(C(F)(F)F)cc1)c1ccccc1 (stereo not drawn) [Fluoxetine hydrochloride]
cell viability (compound concentration: 3 uM): 97.9 ± 12%

Cc1nc2n(c(=O)c1CCN1CCC(c3noc4cc(F)ccc34)CC1)CCCC2
cell viability (compound concentration: 3 uM): 89.5%

Cc1nc2n(c(=O)c1CCN1CCC(c3noc4cc(F)ccc34)CC1)CCCC2 [Risperidone]
cell viability (compound concentration: 3 uM): 99.4 ± 8.9%

N=C(N)NCCC[C@H](N)C(=O)O [L-Arginine]
cell viability (compound concentration: 3 uM): 103%

C#CCN1C(C)=C(C(=O)OC)C(c2cccc([N+](=O)[O-])c2)C(C(=O)OCC)=C1C (stereo not drawn)
cell viability (compound concentration: 3 uM): 101%

OCc1cc(C(O)CNCCCCCCOCCCCc2ccccc2)ccc1O (stereo not drawn) [Salmeterol]
cell viability (compound concentration: 3 uM): 104 ± 5.6%

OCc1cc(C(O)CNCCCCCCOCCCCc2ccccc2)ccc1O (stereo not drawn) [Salmeterol xinafoate]
cell viability (compound concentration: 3 uM): 112%

O=C(O)Cc1sc(-c2ccccc2)nc1-c1ccc(Cl)cc1 [Fentiazac]
cell viability (compound concentration: 3 uM): 118 ± 23%

COc1ccc(-c2cc(=O)c3ccc(O)cc3o2)cc1
cell viability [1]: 103%

N[C@@H](C(=O)N[C@@H]1C(=O)N2C(C(=O)O)=C(CSc3cn[nH]n3)CS[C@H]12)c1ccc(O)cc1
cell viability (compound concentration: 3 uM): 96.1%

CCN1CC(CCN2CCOCC2)C(c2ccccc2)(c2ccccc2)C1=O (stereo not drawn)
cell viability (compound concentration: 3 uM): 96.9%

Nc1ncnc2c1ncn2[C@@H]1O[C@H](COP(=O)(O)OP(=O)(O)OP(=O)(O)O)[C@@H](O)[C@H]1O
cell viability [1]: 104%

COc1cc2cc3c4c(cc(OC)c(OC)c4c2cc1OC)CCN3C [Dehydroglaucine]
cell viability [1]: 98.2%

CCOC(=O)OC(C)OC1=C(C(=O)Nc2ccccn2)N(C)S(=O)(=O)c2ccccc21 (stereo not drawn)
cell viability (compound concentration: 3 uM): 99.9%

CCOC(=O)OC(C)OC1=C(C(=O)Nc2ccccn2)N(C)S(=O)(=O)c2ccccc21 (stereo not drawn) [Ampiroxicam]
cell viability (compound concentration: 3 uM): 95.2%

CC(=O)[C@H]1CC[C@H]2[C@@H]3C[C@H](C)C4=CC(=O)CC[C@]4(C)[C@H]3[C@@H](O)C[C@]12C [Medrysone]
cell viability (compound concentration: 3 uM): 133%

CC(=O)[C@H]1CC[C@H]2[C@@H]3C[C@H](C)C4=CC(=O)CC[C@]4(C)[C@H]3[C@@H](O)C[C@]12C
cell viability (compound concentration: 3 uM): 120%

COc1ccc(-c2oc3ccccc3c(=O)c2O)cc1OC
cell viability [1]: 97.4%

O=C(O)c1cc(-c2ccc(F)cc2F)ccc1O [Diflunisal]
cell viability (compound concentration: 3 uM): 90.9 ± 5.6%

O=C(O)c1cc(-c2ccc(F)cc2F)ccc1O
cell viability (compound concentration: 3 uM): 95.5%
